Experimental data: paper doi:10.1101/2024.01.22.576730
These are yes or no findings as the source states them, for the method shown. In cells and extracts the contact can be indirect. Some results given as binding are weak or reduced against the parent protein; the word gives no strength.

Sequences of proteins named here, by UniProt entry; tags and fusion partners are left off.
UniProt P08047: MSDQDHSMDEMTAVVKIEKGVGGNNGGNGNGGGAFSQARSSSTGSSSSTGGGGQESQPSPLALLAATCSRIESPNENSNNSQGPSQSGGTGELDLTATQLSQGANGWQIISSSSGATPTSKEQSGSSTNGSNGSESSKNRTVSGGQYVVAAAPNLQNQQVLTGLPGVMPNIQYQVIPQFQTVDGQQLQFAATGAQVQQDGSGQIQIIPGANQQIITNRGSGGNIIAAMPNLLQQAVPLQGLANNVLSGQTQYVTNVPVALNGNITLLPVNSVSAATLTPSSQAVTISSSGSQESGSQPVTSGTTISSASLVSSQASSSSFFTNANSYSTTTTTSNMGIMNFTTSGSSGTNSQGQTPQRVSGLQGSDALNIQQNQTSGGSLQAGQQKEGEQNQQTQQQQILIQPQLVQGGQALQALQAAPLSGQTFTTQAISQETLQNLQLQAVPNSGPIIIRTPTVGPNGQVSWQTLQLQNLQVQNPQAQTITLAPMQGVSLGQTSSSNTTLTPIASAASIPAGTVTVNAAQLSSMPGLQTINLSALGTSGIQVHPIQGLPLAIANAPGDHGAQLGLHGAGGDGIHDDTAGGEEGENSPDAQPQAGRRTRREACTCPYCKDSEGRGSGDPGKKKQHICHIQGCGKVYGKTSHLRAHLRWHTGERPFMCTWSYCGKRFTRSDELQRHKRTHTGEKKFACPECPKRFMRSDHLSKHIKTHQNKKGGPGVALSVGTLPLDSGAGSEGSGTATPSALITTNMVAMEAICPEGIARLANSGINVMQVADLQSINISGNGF
UniProt Q16666: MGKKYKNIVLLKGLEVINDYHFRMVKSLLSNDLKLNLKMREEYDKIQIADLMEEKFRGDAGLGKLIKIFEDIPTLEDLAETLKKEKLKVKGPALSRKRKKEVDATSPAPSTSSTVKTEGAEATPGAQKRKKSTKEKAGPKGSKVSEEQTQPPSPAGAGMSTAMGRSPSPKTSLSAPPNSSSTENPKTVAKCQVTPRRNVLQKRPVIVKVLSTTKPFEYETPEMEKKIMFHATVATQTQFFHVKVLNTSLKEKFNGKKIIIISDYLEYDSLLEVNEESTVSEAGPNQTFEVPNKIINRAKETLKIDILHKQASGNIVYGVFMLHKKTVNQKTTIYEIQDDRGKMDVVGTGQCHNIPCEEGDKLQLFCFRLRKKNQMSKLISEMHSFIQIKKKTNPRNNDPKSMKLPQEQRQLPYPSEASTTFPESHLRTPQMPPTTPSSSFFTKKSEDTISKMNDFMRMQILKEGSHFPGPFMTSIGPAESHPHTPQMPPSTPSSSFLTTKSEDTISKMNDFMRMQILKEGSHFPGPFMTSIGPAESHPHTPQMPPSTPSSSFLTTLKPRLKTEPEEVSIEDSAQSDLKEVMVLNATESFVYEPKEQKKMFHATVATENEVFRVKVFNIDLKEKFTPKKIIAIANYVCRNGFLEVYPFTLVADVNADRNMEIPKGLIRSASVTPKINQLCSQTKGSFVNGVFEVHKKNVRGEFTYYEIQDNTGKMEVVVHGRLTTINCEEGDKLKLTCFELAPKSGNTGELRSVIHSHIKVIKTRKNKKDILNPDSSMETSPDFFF

Biological target: transcription factor Sp1 (human (endogenous in U2OS)) (UniProt P08047)
Test: co-IP

With “interferon-ɣ inducible factor 16 (IFI16) (from UniProt Q16666 1-785)” the binding was “binds”.
